These results are taken from paper PMC9935901, “B-lymphoid tyrosine kinase-mediated FAM83A phosphorylation elevates pancreatic tumorigenesis through interacting with β-catenin” (Signal Transduction and Targeted Therapy, 2023).

Sequences of proteins named here, by UniProt entry; tags and fusion partners are left off. A change or cut given only in a name is not applied to a line headed by its entry. Residues count along the entry.
UniProt P49841: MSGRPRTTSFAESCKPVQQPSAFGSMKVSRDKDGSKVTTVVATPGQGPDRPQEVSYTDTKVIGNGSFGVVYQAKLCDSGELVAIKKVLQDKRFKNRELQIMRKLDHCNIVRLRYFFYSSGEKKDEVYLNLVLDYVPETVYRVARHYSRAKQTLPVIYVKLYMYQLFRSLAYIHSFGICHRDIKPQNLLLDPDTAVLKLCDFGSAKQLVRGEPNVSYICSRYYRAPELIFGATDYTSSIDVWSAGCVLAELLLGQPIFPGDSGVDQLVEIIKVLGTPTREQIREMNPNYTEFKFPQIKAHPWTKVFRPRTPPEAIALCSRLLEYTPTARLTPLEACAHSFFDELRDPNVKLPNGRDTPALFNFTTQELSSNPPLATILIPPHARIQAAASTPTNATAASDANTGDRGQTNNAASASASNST
kinase domain of GSK3β: residues 56-340 of P49841
UniProt P35222: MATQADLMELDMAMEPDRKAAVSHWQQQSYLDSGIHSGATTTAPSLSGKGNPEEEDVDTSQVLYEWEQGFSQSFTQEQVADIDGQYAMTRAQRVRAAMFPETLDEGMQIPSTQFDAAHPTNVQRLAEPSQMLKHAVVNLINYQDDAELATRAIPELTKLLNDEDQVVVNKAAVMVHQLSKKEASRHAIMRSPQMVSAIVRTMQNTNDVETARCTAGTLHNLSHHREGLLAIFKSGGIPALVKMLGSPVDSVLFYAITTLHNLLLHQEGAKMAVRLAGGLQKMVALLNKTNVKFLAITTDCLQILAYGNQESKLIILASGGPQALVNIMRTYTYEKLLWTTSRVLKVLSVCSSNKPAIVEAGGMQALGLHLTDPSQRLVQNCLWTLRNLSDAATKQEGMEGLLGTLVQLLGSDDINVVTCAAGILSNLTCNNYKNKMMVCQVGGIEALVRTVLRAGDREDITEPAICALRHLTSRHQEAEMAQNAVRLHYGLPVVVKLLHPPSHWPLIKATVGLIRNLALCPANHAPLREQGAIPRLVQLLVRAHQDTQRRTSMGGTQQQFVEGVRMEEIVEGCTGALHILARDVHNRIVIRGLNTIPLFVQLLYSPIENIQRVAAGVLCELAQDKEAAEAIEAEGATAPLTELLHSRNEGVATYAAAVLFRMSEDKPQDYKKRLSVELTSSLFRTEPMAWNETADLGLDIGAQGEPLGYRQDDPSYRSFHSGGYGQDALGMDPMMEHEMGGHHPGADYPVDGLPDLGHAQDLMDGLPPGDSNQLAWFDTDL
UniProt O15169: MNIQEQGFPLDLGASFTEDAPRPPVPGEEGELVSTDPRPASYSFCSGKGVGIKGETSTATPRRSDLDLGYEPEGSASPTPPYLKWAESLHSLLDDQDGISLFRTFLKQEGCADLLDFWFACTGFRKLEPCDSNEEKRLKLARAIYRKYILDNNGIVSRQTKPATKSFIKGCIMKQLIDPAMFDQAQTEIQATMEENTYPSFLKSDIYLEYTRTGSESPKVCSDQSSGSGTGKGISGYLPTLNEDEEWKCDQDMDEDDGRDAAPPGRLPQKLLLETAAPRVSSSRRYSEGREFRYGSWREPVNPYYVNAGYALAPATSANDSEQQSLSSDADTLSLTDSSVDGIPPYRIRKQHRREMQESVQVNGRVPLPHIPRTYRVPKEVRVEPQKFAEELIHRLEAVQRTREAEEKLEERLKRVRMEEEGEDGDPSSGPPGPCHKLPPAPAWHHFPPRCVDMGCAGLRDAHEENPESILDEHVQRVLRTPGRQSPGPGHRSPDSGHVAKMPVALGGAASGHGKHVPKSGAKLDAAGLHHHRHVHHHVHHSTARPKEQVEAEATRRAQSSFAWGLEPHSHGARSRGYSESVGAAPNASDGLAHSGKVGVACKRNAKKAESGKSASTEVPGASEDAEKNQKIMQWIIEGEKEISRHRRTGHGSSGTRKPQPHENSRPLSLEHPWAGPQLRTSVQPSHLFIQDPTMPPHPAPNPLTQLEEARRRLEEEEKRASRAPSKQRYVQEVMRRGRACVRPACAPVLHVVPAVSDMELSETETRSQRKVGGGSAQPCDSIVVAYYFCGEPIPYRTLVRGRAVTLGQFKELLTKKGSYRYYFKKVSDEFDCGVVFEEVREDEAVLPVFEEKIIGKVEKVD
UniProt Q9NQB0: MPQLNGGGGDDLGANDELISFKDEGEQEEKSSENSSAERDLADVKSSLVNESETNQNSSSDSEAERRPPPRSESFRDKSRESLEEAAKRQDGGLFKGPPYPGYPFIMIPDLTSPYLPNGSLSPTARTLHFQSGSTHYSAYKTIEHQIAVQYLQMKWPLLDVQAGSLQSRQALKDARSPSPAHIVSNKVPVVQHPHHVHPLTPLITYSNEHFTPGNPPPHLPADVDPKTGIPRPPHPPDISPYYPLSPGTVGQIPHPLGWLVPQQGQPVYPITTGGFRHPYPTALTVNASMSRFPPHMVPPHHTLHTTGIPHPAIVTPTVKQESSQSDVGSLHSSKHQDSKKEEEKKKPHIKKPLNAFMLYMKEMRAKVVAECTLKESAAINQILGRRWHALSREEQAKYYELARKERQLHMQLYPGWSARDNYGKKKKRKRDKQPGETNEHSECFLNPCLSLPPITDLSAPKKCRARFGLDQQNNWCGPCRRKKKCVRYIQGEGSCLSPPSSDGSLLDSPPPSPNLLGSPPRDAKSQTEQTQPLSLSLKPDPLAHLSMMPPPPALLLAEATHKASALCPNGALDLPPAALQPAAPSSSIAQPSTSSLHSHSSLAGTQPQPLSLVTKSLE

No constants are given. Whether binding was seen depends on the method and setting. In cells and extracts the contact can be indirect. Some results given as binding are weak or reduced against the parent protein; the word gives no strength. For some of these results: Where a sequence is shown, tags or fusion partners need not be part of it.

Test [1] deals with endogenous GSK3β (human (endogenous in PANC-1 and HEK293T)) (UniProt P49841). In words: co-IP; endogenous proteins in PANC-1 cell lysates, western blotting; with or without FAM83A knockdown, Flag-FAM83A overexpression or peptide treatment.
Test [2] concerns the target endogenous β-catenin (human (endogenous in PANC-1 and HEK293T)) (UniProt P35222). The test is described as above.
Test [3] has as its target endogenous AXIN1 (human (endogenous in PANC-1 and HEK293T)) (UniProt O15169). The test is described as above.
The target in test [4] is HA-tagged β-catenin (UniProt P35222). In words: co-IP; HEK293T cells transfected for 48 h, IP and western blotting; with or without BLK, FAM83A wild type, Y138A or Y138D, saracatinib.
For test [5], the target named is kinase domain of GSK3β (UniProt P49841). The experiment in a line: co-IP; supplementary panels (Fig. S1b–e, S4c); exogenous co-IP; cells and tags not shown.
The target in test [6] is GSK3β (exogenous, construct not stated) (UniProt P49841). Described as above.
In test [7] the target is TCF4 (construct not stated) (UniProt Q9NQB0). Described as above.

B1: endogenous FAM83A (protein, UniProt Q86UY5 1-434)
chain: MSRSRHLGKIRKRLEDVKSQWVRPARADFSDNESARLATDALLDGGSEAYWRVLSQEGEVDFLSSVEAQYIQAQAREPPCPPDTLGGAEAGPKGLDSSSLQSGTYFPVASEGSEPALLHSWASAEKPYLKEKSSATVYFQTVKHNNIRDLVRRCITRTSQVLVILMDVFTDVEIFCDILEAANKRGVFVCVLLDQGGVKLFQEMCDKVQISDSHLKNISIRSVEGEIYCAKSGRKFAGQIREKFIISDWRFVLSGSYSFTWLCGHVHRNILSKFTGQAVELFDEEFRHLYASSKPVMGLKSPRLVAPVPPGAAPANGRLSSSSGSASDRTSSNPFSGRSAGSHPGTRSVSASSGPCSPAAPHPPPPPRFQPHQGPWGAPSPQAHLSPRPHDGPPAAVYSNLGAYRPTRLQLEQLGLVPRLTPTWRPFLQASPHF
With B1, the binding result in test [1], in test [2] and in test [3] was “binds” each time.

B2: Flag-tagged FAM83A (protein, UniProt Q86UY5 1-434)
chain: B1 chain
Take B2: the binding entry in test [4] is “binds”.

B3: FAM83A (construct not stated) (protein, UniProt Q86UY5 1-434)
chain: B1 chain
Turning to B3, the binding entry in test [5], in test [6] and in test [7] was “binds” in each case.
